Assay results: article PMC5428017, “Targeting to the non-genomic activity of retinoic acid receptor-gamma by acacetin in hepatocellular carcinoma” (Scientific Reports, 2017)
No constants are given. Whether binding was seen depends on the method and setting. Binding seen in cells or lysates may run through a third protein. Some results given as binding are weak or reduced against the parent protein; the word gives no strength.

Amino acid sequences for entries named in this document (tags omitted).
UniProt P27986: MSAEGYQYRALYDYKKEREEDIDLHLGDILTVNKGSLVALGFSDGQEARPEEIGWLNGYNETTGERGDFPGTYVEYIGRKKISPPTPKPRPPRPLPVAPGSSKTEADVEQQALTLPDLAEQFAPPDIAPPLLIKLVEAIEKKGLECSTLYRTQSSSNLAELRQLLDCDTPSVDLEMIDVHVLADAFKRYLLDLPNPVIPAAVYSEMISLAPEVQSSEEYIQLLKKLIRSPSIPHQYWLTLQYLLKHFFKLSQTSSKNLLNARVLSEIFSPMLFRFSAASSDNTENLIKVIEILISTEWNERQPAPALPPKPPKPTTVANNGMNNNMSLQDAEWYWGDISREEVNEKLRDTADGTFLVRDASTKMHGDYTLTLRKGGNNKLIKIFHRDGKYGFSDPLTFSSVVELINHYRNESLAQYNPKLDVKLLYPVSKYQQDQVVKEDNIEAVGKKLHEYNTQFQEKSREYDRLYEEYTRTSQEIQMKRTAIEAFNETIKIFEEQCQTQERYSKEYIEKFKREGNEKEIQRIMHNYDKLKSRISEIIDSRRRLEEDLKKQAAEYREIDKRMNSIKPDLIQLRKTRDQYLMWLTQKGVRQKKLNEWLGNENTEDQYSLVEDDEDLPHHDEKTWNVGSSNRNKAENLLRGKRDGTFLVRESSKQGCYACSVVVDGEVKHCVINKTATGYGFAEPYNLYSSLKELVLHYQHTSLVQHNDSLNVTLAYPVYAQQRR

Molecular target: T1, retinoic acid receptor-γ (RARγ) (human (endogenous in HepG2)) (UniProt P13631)
T1 sequence: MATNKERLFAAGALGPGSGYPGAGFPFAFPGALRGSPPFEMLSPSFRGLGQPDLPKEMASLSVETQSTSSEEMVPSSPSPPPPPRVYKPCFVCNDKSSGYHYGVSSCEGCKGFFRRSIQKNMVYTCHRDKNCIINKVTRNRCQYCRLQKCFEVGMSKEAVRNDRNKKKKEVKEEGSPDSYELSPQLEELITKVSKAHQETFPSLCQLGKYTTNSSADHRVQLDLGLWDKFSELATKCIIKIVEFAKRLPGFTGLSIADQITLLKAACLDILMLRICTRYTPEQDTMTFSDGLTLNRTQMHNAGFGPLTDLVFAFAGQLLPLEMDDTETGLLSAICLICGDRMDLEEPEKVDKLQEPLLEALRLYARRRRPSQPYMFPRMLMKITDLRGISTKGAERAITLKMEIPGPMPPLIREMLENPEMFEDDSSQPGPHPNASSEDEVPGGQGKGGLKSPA
Assay: co-IP; HepG2 cells treated with vehicle for 12 h; lysate (1% Triton X-100, 20 mM Hepes pH 7.6, 150 mM NaCl, 1 mM EDTA) incubated with anti-RARγ antibody at 4 °C overnight, protein A/G agarose; blotted with anti-RARγ and anti-p85α; rabbit IgG as control

For “p85α regulatory subunit of PI3K (from UniProt P27986 1-724)”, the binding was “binds”.
